Data from paper PMC10638239.
Results are given in words; binding and its absence hold for the method and conditions named. Binding seen in cells or lysates may run through a third protein. Some binding calls cover weakened binding; strength is not graded here.

The chains behind the UniProt entries cited, without tags or fusion partners. Residues count along the entry.
UniProt Q9NPG3, residues 1-175: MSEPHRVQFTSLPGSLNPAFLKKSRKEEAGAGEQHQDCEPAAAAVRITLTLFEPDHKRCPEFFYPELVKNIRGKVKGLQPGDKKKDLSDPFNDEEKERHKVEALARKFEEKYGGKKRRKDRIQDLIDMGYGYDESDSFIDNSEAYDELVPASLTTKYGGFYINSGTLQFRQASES

Biological target: His-MBP-UBN1^1-175 (UniProt Q9NPG3)
Experiment: pull-down; purified His-MBP fusion incubated with 1.5 mg whole cell lysate of Raji or DT40 ψV KO in 1X PBS, 6 h at 4 °C; Ni-NTA beads; washes with 200 mM NaCl, 50 mM imidazole; western blot with anti-AID mAb or anti-UBN1 pAb; only the target purified

- binding: binds
B1: Activation-induced cytidine deaminase (AID), endogenous in DT40 ψV KO cells (enzyme, UniProt E1BVI0 1-198)
chain: MDSLLMKRKLFLYNFKNLRWAKGRRETYLCYVVKRRDSATSCSLDFGYLRNKMGCHVEVLFLRYISAWDLDPGRCYRITWFTSWSPCYDCARHVADFLRAYPNLTLRIFTARLYFCEDRKAEPEGLRRLHRAGAQIAIMTFKDFFYCWNTFVENREKTFKAWEGLHENSVHLSRKLRRILLPLYEVDDLRDAFKTLGL
